# Data: the supplement of paper PMC9433722
# Counter-ions that a name gives are not always drawn. The list shows a part of the results. Many values rest on one well or one pass, so single values are uncertain.
# System: Saos-2
# Experiment: cell viability (CCK-8) relative to DMSO control (% of control); higher = less cytotoxic
# Conditions: 10 µM; 48 h
row,SMILES,cell viability
1,Nc1nc(=O)[nH]cc1F [Flucytosine],118
2,O=c1[nH]cnc2c1ncn2[C@H]1CC[C@@H](CO)O1 [Didanosine],66.4
3,NC1=NCC2c3ccccc3Cc3ccccc3N12 (configuration not stated) [Epinastine·HCl],113
4,C[C@]12C=CC(=O)C=C1CC[C@@H]1[C@@H]2[C@@H](O)C[C@@]2(C)[C@H]1CC[C@]2(O)C(=O)CO [Prednisolone],67.1
5,C[C@H](N)[C@H](O)c1cccc(O)c1 [Metaraminol Bitartrate],95.8
6,CNC(=O)c1cnn(-c2nc(N)c3ncn([C@@H]4O[C@H](CO)[C@@H](O)[C@H]4O)c3n2)c1 [Regadenoson],106
7,N[C@@H]1CONC1=O [Cycloserine],113
8,CO[C@H]1C[C@@H]2CC[C@@H](C)[C@@](O)(O2)C(=O)C(=O)N2CCCC[C@H]2C(=O)O[C@H]([C@H](C)C[C@@H]2CC[C@@H](O)[C@H](OC)C2)CC(=O)[C@H](C)/C=C(\C)[C@@H](O)[C@@H](OC)C(=O)[C@H](C)C[C@H](C)/C=C/C=C/C=C/1C [Rapamycin],52
9,COCCc1ccc(OCC(O)CNC(C)C)cc1 (configuration not stated) [Metoprolol Tartrate],76.6
10,CC(=O)OC(C)C[N+](C)(C)C (configuration not stated) [Methacholine Chloride],94.6
11,C#C[C@]1(O)CC[C@H]2[C@@H]3CCC4=CC(=O)CC[C@@H]4[C@H]3CC[C@@]21CC [Levonorgestrel],67.1
12,CC(C)(C)NCC(O)c1ccc(O)c(CO)c1 (configuration not stated) [Salbutamol Hemisulfate],62.2
13,CC(C)OC(=O)C(C)(C)Oc1ccc(C(=O)c2ccc(Cl)cc2)cc1 [Fenofibrate],64.7
14,CN(C)CCOc1ccc(/C(=C(/CCCl)c2ccccc2)c2ccccc2)cc1 [Toremifene Base],67.4
15,CCn1cc(C(=O)O)c(=O)c2cc(F)c(N3CCNCC3)cc21 [Norfloxacin],72.4
16,COc1ccccc1Oc1c(NS(=O)(=O)c2ccc(C(C)(C)C)cc2)nc(-c2ncccn2)nc1OCCO [Bosentan],67.5
17,CCCCCCCCCC(=O)N[C@@H](Cc1c[nH]c2ccccc12)C(=O)N[C@H](CC(N)=O)C(=O)N[C@@H](CC(=O)O)C(=O)N[C@@H]1C(=O)NCC(=O)N[C@@H](CCCN)C(=O)N[C@@H](CC(=O)O)C(=O)N[C@H](C)C(=O)N[C@@H](CC(=O)O)C(=O)NCC(=O)N[C@H](CO)C(=O)N[C@@H]([C@H](C)CC(=O)O)C(=O)N[C@@H](CC(=O)c2ccccc2N)C(=O)O[C@@H]1C [Daptomycin],116
18,NCCCCCC(=O)O [6-Aminocaproic acid],113
19,C[C@@H](O)[C@H]1C(=O)N2C(C(=O)O)=C(S[C@@H]3CN[C@H](C(=O)N(C)C)C3)[C@H](C)[C@H]12 [Meropenem],64.1
20,Cc1cc(NS(=O)(=O)c2ccc(N)cc2)no1 [Sulfamethoxazole],110
21,CC[C@@H](CO)NCCN[C@@H](CC)CO [Ethambutol Dihydrochloride],101
22,CC1(C)C[C@@H]1C(=O)N/C(=C\CCCCSC[C@H](N)C(=O)O)C(=O)O [Cilastatin Sodium],68.7
23,CC[C@H](C)[C@H](N)C1=N[C@H](C(=O)N[C@@H](CC(C)C)C(=O)N[C@H](CCC(=O)O)C(=O)N[C@H](C(=O)N[C@H]2CCCCNC(=O)[C@H](CC(N)=O)NC(=O)[C@@H](CC(=O)O)NC(=O)[C@H](Cc3cnc[nH]3)NC(=O)[C@@H](Cc3ccccc3)NC(=O)[C@H]([C@@H](C)CC)NC(=O)[C@@H](CCCN)NC2=O)[C@@H](C)CC)CS1 [Bacitracin],119
24,CO[C@H]1/C=C/O[C@@]2(C)Oc3c(C)c(O)c4c(O)c(c(/C=N/N5CCN(C)CC5)c(O)c4c3C2=O)NC(=O)/C(C)=C\C=C\[C@H](C)[C@H](O)[C@@H](C)[C@@H](O)[C@@H](C)[C@H](OC(C)=O)[C@@H]1C [Rifampicin],55.5
25,CCOC(=O)[C@H](CCc1ccccc1)N[C@@H](C)C(=O)N1Cc2cc(OC)c(OC)cc2C[C@H]1C(=O)O [Moexipril·HCl],110
26,C[C@]12C=CC(=O)N[C@@H]1CC[C@@H]1[C@@H]2CC[C@]2(C)[C@@H](C(=O)Nc3cc(C(F)(F)F)ccc3C(F)(F)F)CC[C@@H]12 [Dutasteride],109
27,Clc1ccccc1C(c1ccccc1)(c1ccccc1)n1ccnc1 [Clotrimazole],121

# Compounds listed so far with a carbonyl joined to an NH by a bond outside any ring:
row,SMILES,cell viability
6,CNC(=O)c1cnn(-c2nc(N)c3ncn([C@@H]4O[C@H](CO)[C@@H](O)[C@H]4O)c3n2)c1 [Regadenoson],106
17,CCCCCCCCCC(=O)N[C@@H](Cc1c[nH]c2ccccc12)C(=O)N[C@H](CC(N)=O)C(=O)N[C@@H](CC(=O)O)C(=O)N[C@@H]1C(=O)NCC(=O)N[C@@H](CCCN)C(=O)N[C@@H](CC(=O)O)C(=O)N[C@H](C)C(=O)N[C@@H](CC(=O)O)C(=O)NCC(=O)N[C@H](CO)C(=O)N[C@@H]([C@H](C)CC(=O)O)C(=O)N[C@@H](CC(=O)c2ccccc2N)C(=O)O[C@@H]1C [Daptomycin],116
22,CC1(C)C[C@@H]1C(=O)N/C(=C\CCCCSC[C@H](N)C(=O)O)C(=O)O [Cilastatin Sodium],68.7
23,CC[C@H](C)[C@H](N)C1=N[C@H](C(=O)N[C@@H](CC(C)C)C(=O)N[C@H](CCC(=O)O)C(=O)N[C@H](C(=O)N[C@H]2CCCCNC(=O)[C@H](CC(N)=O)NC(=O)[C@@H](CC(=O)O)NC(=O)[C@H](Cc3cnc[nH]3)NC(=O)[C@@H](Cc3ccccc3)NC(=O)[C@H]([C@@H](C)CC)NC(=O)[C@@H](CCCN)NC2=O)[C@@H](C)CC)CS1 [Bacitracin],119
26,C[C@]12C=CC(=O)N[C@@H]1CC[C@@H]1[C@@H]2CC[C@]2(C)[C@@H](C(=O)Nc3cc(C(F)(F)F)ccc3C(F)(F)F)CC[C@@H]12 [Dutasteride],109
